Experimental data: patent US20240002521A1
No constants are given. Whether binding was seen depends on the method and setting. Some binding calls cover weakened binding; strength is not graded here.

Chains of the proteins cited; added tags and fusions are not shown. Lines headed by an entry give the natural chain unless they say otherwise; changes in a name come on top.
UniProt P01589: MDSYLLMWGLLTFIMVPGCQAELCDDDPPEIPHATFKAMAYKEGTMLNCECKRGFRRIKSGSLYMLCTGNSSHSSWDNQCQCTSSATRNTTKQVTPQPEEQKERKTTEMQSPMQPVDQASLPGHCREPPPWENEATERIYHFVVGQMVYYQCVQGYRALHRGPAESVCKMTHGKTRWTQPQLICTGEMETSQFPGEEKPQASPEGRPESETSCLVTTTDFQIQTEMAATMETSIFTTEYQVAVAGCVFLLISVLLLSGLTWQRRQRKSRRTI

B1: MAB02 (antibody, V domains shown)
VH: QVQLVESGGGVVQPGRSLRLSCAASGFTFSNHAMAWVRQAPKKGLEWVAYISYDGDNTYYRDSVKGRFTISRDNAQSTLYLQMNSLRAEDTAVYYCTTGGNSGYDWGQGTLVTVSS
VL: DIQMTQSPSSLSASVGDRVTITCRASQNVNKFLNWYQQKPGKAPRRLIYGTNSLQSGVPSRFSGSGSGTDYTLTISSLQPEDFATYYCQQYTSWPWTFGQGTKLEIK
B2: MAB09 (antibody, V domains shown)
VH: QVQLVESGGGVVQPGRSLRLSCAASGFTFSNHAMAWVRQAPGKGLEWVAYISYDGDNTYYADSVKGRFTISRDNAKSTLYLQMNSLRAEDTAVYYCTTGGNSGYDWGQGTLVTVSS
VL: DIQMTQSPSSLSASVGDRVTITCKGSQNVNKFLNWYQQKLGEAPRRLIYGTNSLQTGVPSRFSGSGSGTDYTLTISSLQPEDFATYYCQQYTSWPWTFGQGTKLEIK
B3: MAB10 (antibody, V domains shown)
VH: QVQLVESGGGVVQPGRSLRLSCAASGFTFSNHAMAWVRQAPGKGLEWVAYISYDGDNTYYADSVKGRFTISRDNAKSTLYLQMNSLRAEDTAVYYCTTGGNSGYDWGQGTLVTVSS
VL: DIQMTQSPSSLSASVGDRVTITCRASQNVNKFLNWYQQKPGKAPRRLIYGTNSLQSGVPSRFSGSGSGTDYTLTISSLQPEDFATYYCQQYTSWPWTFGQGTKLEIK
B4: MAB17 (antibody, V domains shown)
VH: QVQLVESGGGVVQPGRSLRLSCAASGFTFSSHAMAWVRQAPGKGLEWVAYISYDGDNTYYADSVKGRFTISRDNSKNTLYLQMNSLRAEDTAVYYCTTGGNSGYDWGQGTLVTVSS
VL: DIQMTQSPSSLSASVGDRVTITCKGSQNVNKFLNWYQQKLGEAPRRLIYGTNSLQTGVPSRFSGSGSGTDYTLTISSLQPEDFATYYCQQYTSWPWTFGQGTKLEIK
B5: MAB18 (antibody, V domains shown)
VH: QVQLVESGGGVVQPGRSLRLSCAASGFTFSSHAMAWVRQAPGKGLEWVAYISYDGDNTYYADSVKGRFTISRDNSKNTLYLQMNSLRAEDTAVYYCTTGGNSGYDWGQGTLVTVSS
VL: DIQMTQSPSSLSASVGDRVTITCRASQNVNKFLNWYQQKPGKAPRRLIYGTNSLQSGVPSRFSGSGSGTDYTLTISSLQPEDFATYYCQQYTSWPWTFGQGTKLEIK

Each binder was assayed against human CD25 (Interleukin-2 receptor alpha chain) (human) (UniProt P01589) (assay: Flow cytometry on CD25 positive SU-DHL1 cells, antibody at 10 ug/ml, APC goat anti-human IgG detection).
For B1, the binding was “binds”.
In the case of B2, the binding is reported as “binds”.
With B3 the binding was “binds”.
With B4 the binding was “binds”.
B5 was tested, and the binding was “binds”.
